Reference: PubChem BioAssay AID248 (DTP/NCI, 2004)
The list does not hold the whole screen: it gathers tests that were run many times, whatever their T/C, doses with no T/C, and many T/C values between a quarter and a half above the control. Other doses and runs of a compound stand elsewhere. T/C is the treated group as % of the vehicle group. Some doses have a count of surviving animals in place of a T/C: the source files T/C as zero there, which appears to mark a toxic dose or a test without result, not a measured value. Some doses without a T/C left all or most animals alive at the check, yet need not have been tolerated: survival well below the control is almost never listed, so the zero probably covers shortened survival too. Survivors were counted at the toxicity check, usually on the fifth day, unless a day is given; later deaths do not show. Schedule codes are those of the source, read here as Q, the interval in days (D) or hours (H), X, the number of doses. Some entries hold several experiments; the results are listed from low to high. Some schedules carry Z or #; the key to these is not given. Where survival is the endpoint, the PubChem record calls one and a half times the control and up active, and a quarter to a half above the control has no call in these data; cut-offs in other NCI protocols can differ. Some T/C values carry the count of animals alive at the toxicity check (mostly the fifth day); without a count, all were alive then.

System: L1210 leukemia ip in BDF1 mice, survival T/C
Experiment: NCI In Vivo Anticancer Drug Screen. Data for tumor model L1210 Leukemia (intraperitoneal) in B6D2F1 (BDF1) mice
Conditions: T/C endpoint: mean survival time, higher T/C = longer survival
[1] = dose: 200.0 mg/kg/injection, schedule: Q01DX001 (ip), vehicle: saline
[2] = dose: 400.0 mg/kg/injection, schedule: Q01DX001 (ip), vehicle: saline
[3] = dose: 400.0 mg/kg/injection, schedule: Q04DX003 (ip), vehicle: saline with Tween-80
[4] = dose: 100.0 mg/kg/injection, schedule: Q01DX009 (ip), vehicle: saline with Tween-80
[5] = dose: 400.0 mg/kg/injection, schedule: Q01DX009 (ip), vehicle: Klucel (hydroxypropylcellulose) (HPC)
[6] = dose: 200.0 mg/kg/injection, schedule: Q01DX009 (ip), vehicle: saline with Tween-80
[7] = dose: 400.0 mg/kg/injection, schedule: Q01DX009 (ip), vehicle: saline with Tween-80
[8] = dose: 400.0 mg/kg/injection, schedule: Q01DX001 (ip), vehicle: Klucel (hydroxypropylcellulose) (HPC)
[9] = dose: 400.0 mg/kg/injection, schedule: Q04DX003 (ip), vehicle: saline

For COC(=O)c1ccc(=O)c2nc3/c(=C/O)c(O)cc(=O)c3[nH]c12, which survivor count (dose: 0.19 mg/kg/injection, schedule: Q01DX001 (ip), vehicle: saline) is on record?
Its survivor count is 3 of 6.

What about the survivor count (dose: 0.39 mg/kg/injection, schedule: Q01DX001 (ip), vehicle: saline) of the same compound?
Its survivor count is 0 of 6.

What about the survivor count (dose: 0.78 mg/kg/injection, schedule: Q01DX001 (ip), vehicle: saline) of the same compound?
The survivor count was 0 of 6.

And the survivor count (dose: 1.56 mg/kg/injection, schedule: Q01DX001 (ip), vehicle: saline)?
Its survivor count is 0 of 6.

What about the survivor count (dose: 2.5 mg/kg/injection, schedule: Q01DX009 (ip), vehicle: saline with Tween-80) of the same compound?
Its survivor count is 5 of 6.

And the survivor count (dose: 3.12 mg/kg/injection, schedule: Q01DX001 (ip), vehicle: saline)?
The survivor count was 0 of 6.

And the survivor count (dose: 5.0 mg/kg/injection, schedule: Q01DX009 (ip), vehicle: saline with Tween-80)?
Its survivor count is 4 of 6.

And the survivor count (dose: 6.25 mg/kg/injection, schedule: Q01DX001 (ip), vehicle: saline)?
The survivor count was 0 of 6.

And the survivor count (dose: 10.0 mg/kg/injection, schedule: Q01DX009 (ip), vehicle: saline with Tween-80)?
The survivor count was 0 of 6.

And the survivor count (dose: 12.5 mg/kg/injection, schedule: Q01DX001 (ip), vehicle: saline)?
Its survivor count is 1 of 6.

And the survivor count (dose: 25.0 mg/kg/injection, schedule: Q01DX001 (ip), vehicle: saline)?
The survivor count was 0 of 6.

And the survivor count (dose: 50.0 mg/kg/injection, schedule: Q01DX001 (ip), vehicle: saline)?
The survivor count was 0 of 6.

And the survivor count (dose: 100.0 mg/kg/injection, schedule: Q01DX001 (ip), vehicle: saline)?
Its survivor count is 0 of 6.

What about the survivor count (dose: 100.0 mg/kg/injection, schedule: Q04DX003 (ip), vehicle: saline with Tween-80) of the same compound?
Its survivor count is 0 of 6.

What about the survivor count [1] of the same compound?
Its survivor count is 0 of 6.

What about the survivor count (dose: 200.0 mg/kg/injection, schedule: Q04DX003 (ip), vehicle: saline with Tween-80) of the same compound?
Its survivor count is 0 of 6.

What about the survivor count [2] of the same compound?
The survivor count was 0 of 6.

What about the survivor count [3] of the same compound?
The survivor count was 0 of 6.

What about the survivor count (dose: 95.0 micrograms/kg/injection, schedule: Q01DX009 (ip), vehicle: saline) of the same compound?
Its survivor count is 6 of 6.

With NC(=O)c1ccccc1NC(=O)Nc1cccc(F)c1 as the compound, how does the survivor count [4] read?
Its survivor count is 3 of 6.

For CCCCCCCCCCCCCCCCCC[N+](C)=C1SCCS1, which survivor count (dose: 12.5 mg/kg/injection, schedule: Q01DX009 (ip), vehicle: Klucel (hydroxypropylcellulose) (HPC)) is on record?
Its survivor count is 3 of 6.

And the survivor count (dose: 25.0 mg/kg/injection, schedule: Q01DX009 (ip), vehicle: Klucel (hydroxypropylcellulose) (HPC))?
Its survivor count is 0 of 6.

What about the survivor count (dose: 50.0 mg/kg/injection, schedule: Q01DX009 (ip), vehicle: Klucel (hydroxypropylcellulose) (HPC)) of the same compound?
The survivor count was 0 of 6.

What about the survivor count (dose: 100.0 mg/kg/injection, schedule: Q01DX009 (ip), vehicle: Klucel (hydroxypropylcellulose) (HPC)) of the same compound?
Its survivor count is 0 of 6.

What about the survivor count (dose: 200.0 mg/kg/injection, schedule: Q01DX009 (ip), vehicle: Klucel (hydroxypropylcellulose) (HPC)) of the same compound?
Its survivor count is 0 of 6.

And the survivor count [5]?
The survivor count was 0 of 6.

Which survivor count (dose: 100.0 mg/kg/injection, schedule: Q01DX001 (ip), vehicle: saline with Tween-80) does the source give for COc1cc(C=O)ccc1OC(=O)Nc1cc(C)ccc1C here?
The survivor count was 6 of 6.

And the T/C [4]?
The T/C was 87 [4 of 6 alive], 92, 107 % of control.

And the survivor count [4]?
Its survivor count is 3 of 3.

And the survivor count [6]?
Its survivor count is 4 of 6 and 3 of 3.

What about the survivor count (dose: 400.0 mg/kg/injection, schedule: Q01DX001 (ip), vehicle: saline with Tween-80) of the same compound?
Its survivor count is 0 of 6.

And the survivor count [7]?
The survivor count was 0 of 3 and 0 of 6.

Which survivor count (dose: 400.0 mg/kg/injection, schedule: Q01DX009 (ip), vehicle: acetone) does the source give for COC1C(=O)CCC2(CO2)C1(O)C1(C)OC1CCC(C)C (stereo unspecified) here?
The survivor count was 1 of 6.

What does the source list for CC(C)(O)C(=O)NC/C=C/c1ccccc1?
survivor count [4]: 5 of 6; survivor count [6]: 0 of 6; survivor count [7]: 0 of 6

What does the source list for CCCCCNC(C)=O?
survivor count (dose: 100.0 mg/kg/injection, schedule: Q01DX009 (ip), vehicle: saline): 1 of 6; survivor count (dose: 400.0 mg/kg/injection, schedule: Q01DX009 (ip), vehicle: saline): 1 of 6

O=[N+]([O-])c1ccc2c(c1)S(=O)c1ccccc1-2 (stereo unspecified) was tested. Which survivor count [3] did it give?
The survivor count was 3 of 6.

CCNC(=O)N(C)Cc1ccc(Cl)cc1 was tested. Which survivor count [7] did it give?
The survivor count was 0 of 6.

What does the source list for NC1=NCN(c2ccc(CCCCc3ccccc3)cc2)C(N)=N1?
survivor count (dose: 100.0 mg/kg/injection, schedule: Q01DX001 (ip), vehicle: Klucel (hydroxypropylcellulose) (HPC)): 2 of 6; survivor count (dose: 200.0 mg/kg/injection, schedule: Q01DX001 (ip), vehicle: Klucel (hydroxypropylcellulose) (HPC)): 0 of 6; survivor count [8]: 0 of 6

What does the source list for CC(CN1CCN(CCOCCO)CC1)CN1c2ccccc2Sc2ccccc21 (stereo unspecified)?
survivor count (dose: 50.0 mg/kg/injection, schedule: Q01DX009 (ip), vehicle: saline): 3 of 6; survivor count (dose: 100.0 mg/kg/injection, schedule: Q04DX003 (ip), vehicle: saline): 2 of 4; survivor count (dose: 200.0 mg/kg/injection, schedule: Q04DX003 (ip), vehicle: saline): 0 of 4; survivor count [9]: 0 of 4

For COc1ccc2c(c1)c1c(C)c3cnccc3c(C)c1n2CC1CO1 (stereo unspecified), which survivor count (dose: 18.7 mg/kg/injection, schedule: Q01DX009 (ip), vehicle: saline with Tween-80) is on record?
Its survivor count is 6 of 6.

And the survivor count (dose: 37.5 mg/kg/injection, schedule: Q01DX009 (ip), vehicle: saline with Tween-80)?
Its survivor count is 6 of 6.

And the T/C (dose: 37.5 mg/kg/injection, schedule: Q04DX003 (ip), vehicle: saline with Tween-80)?
The T/C was 130 % of control.

And the survivor count (dose: 75.0 mg/kg/injection, schedule: Q04DX003 (ip), vehicle: saline with Tween-80)?
Its survivor count is 6 of 6.

And the survivor count (dose: 150.0 mg/kg/injection, schedule: Q04DX003 (ip), vehicle: saline)?
The survivor count was 10 of 10.

What about the survivor count (dose: 300.0 mg/kg/injection, schedule: Q04DX003 (ip), vehicle: saline) of the same compound?
The survivor count was 10 of 10.

Which survivor count [9] does the source give for NC1CCC(Cl)CC1 (stereo unspecified) here?
The survivor count was 6 of 6.

O=Cc1cc(Cl)cc(Cl)c1OC(=O)c1ccccc1 was tested. Which survivor count [5] did it give?
The survivor count was 0 of 6.

For CC(=S)NC(=O)Nc1cccc2ccccc12, which survivor count [8] is on record?
Its survivor count is 3 of 3.

For COc1cc(C(=O)Nc2ccc(NC3=NCCN3)cc2)cc(C(=O)Nc2ccc(NC3=NCCN3)cc2)c1, which survivor count (dose: 15.0 mg/kg/injection, schedule: Q01DX Z (ip), vehicle: methylcellulose (MC)) is on record?
The survivor count was 2 of 6.

What about the survivor count (dose: 30.0 mg/kg/injection, schedule: Q01DX Z (ip), vehicle: methylcellulose (MC)) of the same compound?
Its survivor count is 0 of 6.

And the survivor count (dose: 60.0 mg/kg/injection, schedule: Q01DX Z (ip), vehicle: methylcellulose (MC))?
The survivor count was 0 of 6.

What about the survivor count (dose: 120.0 mg/kg/injection, schedule: Q01DX Z (ip), vehicle: methylcellulose (MC)) of the same compound?
The survivor count was 0 of 6.

Which survivor count (dose: 200.0 mg/kg/injection, schedule: Q04DX003 (ip), vehicle: DMSO) does the source give for Cc1cc(N=Nc2ccccc2)c2cccnc2c1N here?
Its survivor count is 6 of 6.

With CCCCN(CCCC)CCNc1cc(C)nc(/N=C(\N)Nc2ccc(Cl)c(Cl)c2)n1 as the compound, how does the survivor count (dose: 150.0 mg/kg/injection, schedule: Q01DX009 (ip), vehicle: other) read?
The survivor count was 1 of 6.

CN1CC(C(=O)NO)C=C2c3cccc4[nH]cc(c34)CC21 (stereo unspecified) was tested. Which survivor count (dose: 400.0 mg/kg/injection, schedule: Q04DX003 (ip), vehicle: alcohol) did it give?
The survivor count was 0 of 6.

How did the survivor count (dose: 400.0 mg/kg/injection, schedule: Q04DX002 (ip), vehicle: Klucel (hydroxypropylcellulose) (HPC)) turn out when NNC(=O)CNc1ccc(F)cc1Br was run?
The survivor count was 1 of 3.

With O=C(CCl)C1C(O)=[N+](c2ccccc2)C2C=CC=CN12 (stereo unspecified) as the compound, how does the survivor count [1] read?
Its survivor count is 2 of 6.

What about the survivor count [2] of the same compound?
The survivor count was 3 of 6.

How did the survivor count (dose: 150.0 mg/kg/injection, schedule: Q01DX001 (ip), vehicle: saline) turn out when C[Si](C)(O)CCl was run?
Its survivor count is 0 of 6.

And the survivor count (dose: 300.0 mg/kg/injection, schedule: Q01DX001 (ip), vehicle: saline)?
The survivor count was 2 of 6.

How did the survivor count (dose: 100.0 mg/kg/injection, schedule: Q04DX003 (ip), vehicle: Klucel (hydroxypropylcellulose) (HPC)) turn out when O=C(Nc1ccc([N+](=O)[O-])cn1)Nc1cc([N+](=O)[O-])ccc1F was run?
The survivor count was 6 of 6.

And the survivor count [5]?
Its survivor count is 3 of 3.

With C/C(CC(=O)Nc1ccc(Cc2ccc(Cl)cc2)cc1)=N/Nc1ccc([N+](=O)[O-])cc1[N+](=O)[O-] as the compound, how does the survivor count [2] read?
The survivor count was 1 of 4.
